No constants are given. Whether binding was seen depends on the method and setting. A result given as binding can be weak or reduced; the word gives no strength.
Biological target: PfMSP3 on the surface of live P. falciparum 3D7 merozoites (P. falciparum 3D7 (endogenous in merozoites))
Experiment: flow cytometry on cells; live 3D7 merozoites in 5% BSA/PBS at room temperature, incubated with purified human C1-INH (0,02 μg/μl), with or without pre-incubation with MP3.01 mAb (up to 50 μg/mL); bound C1-INH stained with a rabbit polyclonal antibody; only the binder purified

B1: human C1 esterase inhibitor (C1-INH) (protein, UniProt P05155 23-500)
chain: NPNATSSSSQDPESLQDRGEGKVATTVISKMLFVEPILEVSSLPTTNSTTNSATKITANTTDEPTTQPTTEPTTQPTIQPTQPTTQLPTDSPTQPTTGSFCPGPVTLCSDLESHSTEAVLGDALVDFSLKLYHAFSAMKKVETNMAFSPFSIASLLTQVLLGAGENTKTNLESILSYPKDFTCVHQALKGFTTKGVTSVSQIFHSPDLAIRDTFVNASRTLYSSSPRVLSNNSDANLELINTWVAKNTNNKISRLLDSLPSDTRLVLLNAIYLSAKWKTTFDPKKTRMEPFHFKNSVIKVPMMNSKKYPVAHFIDQTLKAKVGQLQLSHNLSLVILVPQNLKHRLEDMEQALSPSVFKAIMEKLEMSKFQPTLLTLPRIKVTTSQDMLSIMEKLEFFDFSYDLNLCGLTEDPDLQVSAMQHQTVLELTETGVEAAAASAISVARTLLVFEVQQPFLFVLWDQQHKFPVFMGRVYDPRA
With B1 the binding was “binds”.
